Test results taken from the supplement of paper PMC10849652.
The list shows a part of the results.

Chains of the proteins cited; added tags and fusions are not shown. Lines headed by an entry give the natural chain unless they say otherwise; changes in a name come on top.
UniProt O94903: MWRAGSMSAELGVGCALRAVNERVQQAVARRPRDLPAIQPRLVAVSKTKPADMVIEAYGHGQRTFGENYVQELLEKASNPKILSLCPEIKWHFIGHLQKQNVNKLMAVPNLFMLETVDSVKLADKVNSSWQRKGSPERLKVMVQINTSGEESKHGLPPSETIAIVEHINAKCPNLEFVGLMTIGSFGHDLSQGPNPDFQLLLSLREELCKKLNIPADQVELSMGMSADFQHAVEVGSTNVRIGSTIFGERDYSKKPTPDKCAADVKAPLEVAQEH
UniProt Q9H8W4: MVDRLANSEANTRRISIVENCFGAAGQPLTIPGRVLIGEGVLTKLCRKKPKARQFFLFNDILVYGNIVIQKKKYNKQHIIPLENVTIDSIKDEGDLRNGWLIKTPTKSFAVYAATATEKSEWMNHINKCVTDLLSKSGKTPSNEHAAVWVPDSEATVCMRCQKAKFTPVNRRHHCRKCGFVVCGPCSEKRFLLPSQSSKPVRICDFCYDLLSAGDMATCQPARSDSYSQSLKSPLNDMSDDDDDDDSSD
UniProt O43660: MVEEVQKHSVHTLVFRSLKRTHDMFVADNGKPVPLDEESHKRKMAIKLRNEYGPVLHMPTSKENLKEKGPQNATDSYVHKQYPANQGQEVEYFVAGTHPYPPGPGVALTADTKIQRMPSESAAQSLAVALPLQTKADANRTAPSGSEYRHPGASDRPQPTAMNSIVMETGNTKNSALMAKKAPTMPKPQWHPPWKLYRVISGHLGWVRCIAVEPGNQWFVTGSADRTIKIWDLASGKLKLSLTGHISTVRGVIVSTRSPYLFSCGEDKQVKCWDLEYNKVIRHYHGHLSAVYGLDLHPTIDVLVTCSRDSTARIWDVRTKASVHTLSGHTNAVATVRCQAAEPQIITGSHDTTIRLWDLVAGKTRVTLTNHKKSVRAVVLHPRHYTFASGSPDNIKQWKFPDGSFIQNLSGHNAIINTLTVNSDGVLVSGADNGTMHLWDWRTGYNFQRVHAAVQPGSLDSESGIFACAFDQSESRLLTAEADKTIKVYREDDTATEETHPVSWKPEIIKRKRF
UniProt P35813: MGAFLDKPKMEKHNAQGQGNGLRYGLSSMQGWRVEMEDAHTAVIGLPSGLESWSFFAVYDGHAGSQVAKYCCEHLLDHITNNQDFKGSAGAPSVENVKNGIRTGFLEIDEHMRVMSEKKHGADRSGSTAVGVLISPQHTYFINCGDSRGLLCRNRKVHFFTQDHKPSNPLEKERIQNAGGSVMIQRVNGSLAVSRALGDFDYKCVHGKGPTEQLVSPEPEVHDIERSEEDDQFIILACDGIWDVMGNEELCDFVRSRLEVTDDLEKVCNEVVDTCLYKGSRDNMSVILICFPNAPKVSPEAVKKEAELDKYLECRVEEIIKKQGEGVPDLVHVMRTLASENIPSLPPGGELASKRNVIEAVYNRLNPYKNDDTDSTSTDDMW
UniProt O14802: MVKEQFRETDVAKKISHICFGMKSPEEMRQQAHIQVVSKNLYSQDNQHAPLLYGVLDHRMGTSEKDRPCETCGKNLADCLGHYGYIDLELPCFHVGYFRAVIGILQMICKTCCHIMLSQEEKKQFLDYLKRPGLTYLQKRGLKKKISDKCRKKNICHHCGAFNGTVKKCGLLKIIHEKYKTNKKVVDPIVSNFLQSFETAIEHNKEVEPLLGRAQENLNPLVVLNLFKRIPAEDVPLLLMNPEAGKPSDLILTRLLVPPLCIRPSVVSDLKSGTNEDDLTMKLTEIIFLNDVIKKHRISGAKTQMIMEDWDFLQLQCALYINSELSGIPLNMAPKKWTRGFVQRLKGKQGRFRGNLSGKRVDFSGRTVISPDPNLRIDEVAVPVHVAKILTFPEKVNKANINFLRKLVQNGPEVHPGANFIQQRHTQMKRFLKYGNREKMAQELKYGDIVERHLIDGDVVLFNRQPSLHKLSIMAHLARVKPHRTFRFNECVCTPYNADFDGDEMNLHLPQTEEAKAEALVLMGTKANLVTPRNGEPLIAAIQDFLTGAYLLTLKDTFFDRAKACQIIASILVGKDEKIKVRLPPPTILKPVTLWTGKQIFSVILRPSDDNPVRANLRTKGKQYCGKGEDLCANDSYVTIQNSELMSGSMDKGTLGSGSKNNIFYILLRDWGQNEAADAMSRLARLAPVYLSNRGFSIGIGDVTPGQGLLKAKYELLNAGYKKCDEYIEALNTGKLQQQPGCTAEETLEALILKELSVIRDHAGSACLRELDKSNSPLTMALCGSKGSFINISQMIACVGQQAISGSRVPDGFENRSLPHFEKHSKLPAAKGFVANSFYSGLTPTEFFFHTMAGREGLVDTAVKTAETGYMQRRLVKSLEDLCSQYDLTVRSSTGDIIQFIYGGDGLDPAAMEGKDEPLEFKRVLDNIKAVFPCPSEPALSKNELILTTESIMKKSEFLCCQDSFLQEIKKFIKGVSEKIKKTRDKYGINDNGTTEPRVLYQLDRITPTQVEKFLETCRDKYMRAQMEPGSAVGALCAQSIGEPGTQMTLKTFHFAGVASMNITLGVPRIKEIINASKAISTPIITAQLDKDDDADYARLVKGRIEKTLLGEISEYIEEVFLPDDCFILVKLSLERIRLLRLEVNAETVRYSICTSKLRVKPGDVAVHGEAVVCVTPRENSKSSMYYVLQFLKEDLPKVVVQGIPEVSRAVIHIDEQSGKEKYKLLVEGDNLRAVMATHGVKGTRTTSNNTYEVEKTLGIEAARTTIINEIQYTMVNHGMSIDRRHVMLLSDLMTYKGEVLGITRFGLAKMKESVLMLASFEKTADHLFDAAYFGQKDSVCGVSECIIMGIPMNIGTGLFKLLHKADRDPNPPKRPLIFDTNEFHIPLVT
UniProt Q15165: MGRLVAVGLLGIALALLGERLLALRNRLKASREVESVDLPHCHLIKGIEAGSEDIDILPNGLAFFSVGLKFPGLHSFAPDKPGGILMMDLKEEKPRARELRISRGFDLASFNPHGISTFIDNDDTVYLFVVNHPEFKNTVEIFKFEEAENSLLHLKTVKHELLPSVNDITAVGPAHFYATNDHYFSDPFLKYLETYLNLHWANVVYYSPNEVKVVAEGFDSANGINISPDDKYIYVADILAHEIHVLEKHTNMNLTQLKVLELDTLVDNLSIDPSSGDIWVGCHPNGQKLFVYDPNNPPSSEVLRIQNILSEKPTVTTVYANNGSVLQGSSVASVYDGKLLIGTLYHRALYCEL
UniProt O95707: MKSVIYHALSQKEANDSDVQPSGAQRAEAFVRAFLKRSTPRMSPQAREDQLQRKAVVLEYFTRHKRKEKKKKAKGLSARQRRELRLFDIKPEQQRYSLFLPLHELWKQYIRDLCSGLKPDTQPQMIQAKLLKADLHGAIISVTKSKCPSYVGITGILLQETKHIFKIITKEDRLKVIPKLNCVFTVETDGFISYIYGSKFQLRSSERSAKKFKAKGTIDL
UniProt Q9NZ53: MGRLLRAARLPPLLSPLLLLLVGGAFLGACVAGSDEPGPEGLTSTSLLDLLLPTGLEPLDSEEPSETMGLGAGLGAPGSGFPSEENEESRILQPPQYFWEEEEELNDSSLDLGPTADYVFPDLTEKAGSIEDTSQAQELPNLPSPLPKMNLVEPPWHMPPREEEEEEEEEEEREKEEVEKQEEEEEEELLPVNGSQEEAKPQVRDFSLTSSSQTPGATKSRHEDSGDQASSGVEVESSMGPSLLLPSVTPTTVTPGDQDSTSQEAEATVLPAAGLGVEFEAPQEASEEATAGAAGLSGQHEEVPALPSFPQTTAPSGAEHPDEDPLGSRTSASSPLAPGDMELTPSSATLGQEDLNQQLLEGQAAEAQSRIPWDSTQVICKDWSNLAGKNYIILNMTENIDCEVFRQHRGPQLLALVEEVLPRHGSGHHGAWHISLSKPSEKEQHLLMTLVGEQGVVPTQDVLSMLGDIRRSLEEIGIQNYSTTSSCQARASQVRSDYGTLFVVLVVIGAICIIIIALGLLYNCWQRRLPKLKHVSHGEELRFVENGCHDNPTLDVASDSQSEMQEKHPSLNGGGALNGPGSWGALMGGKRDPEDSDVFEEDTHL
UniProt Q9NVU0: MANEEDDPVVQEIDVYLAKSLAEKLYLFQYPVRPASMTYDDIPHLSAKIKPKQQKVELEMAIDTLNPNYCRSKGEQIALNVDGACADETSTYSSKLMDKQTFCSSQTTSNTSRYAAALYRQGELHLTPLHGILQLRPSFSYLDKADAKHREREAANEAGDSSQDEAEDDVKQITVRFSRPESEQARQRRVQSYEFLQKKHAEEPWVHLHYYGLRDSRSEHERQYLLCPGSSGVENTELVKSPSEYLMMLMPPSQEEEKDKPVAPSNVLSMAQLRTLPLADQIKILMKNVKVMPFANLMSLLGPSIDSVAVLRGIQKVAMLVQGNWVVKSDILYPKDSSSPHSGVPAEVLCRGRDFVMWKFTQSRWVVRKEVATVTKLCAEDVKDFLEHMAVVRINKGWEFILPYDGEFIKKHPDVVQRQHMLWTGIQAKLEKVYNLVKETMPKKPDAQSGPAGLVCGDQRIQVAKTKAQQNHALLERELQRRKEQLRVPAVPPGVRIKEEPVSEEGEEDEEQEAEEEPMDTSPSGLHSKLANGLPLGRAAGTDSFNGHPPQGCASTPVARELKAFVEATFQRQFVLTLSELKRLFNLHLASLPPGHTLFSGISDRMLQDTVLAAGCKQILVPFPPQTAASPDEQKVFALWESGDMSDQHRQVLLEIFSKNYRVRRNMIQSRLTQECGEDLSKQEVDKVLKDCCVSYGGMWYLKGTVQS
UniProt O15160, whole entry, looked up: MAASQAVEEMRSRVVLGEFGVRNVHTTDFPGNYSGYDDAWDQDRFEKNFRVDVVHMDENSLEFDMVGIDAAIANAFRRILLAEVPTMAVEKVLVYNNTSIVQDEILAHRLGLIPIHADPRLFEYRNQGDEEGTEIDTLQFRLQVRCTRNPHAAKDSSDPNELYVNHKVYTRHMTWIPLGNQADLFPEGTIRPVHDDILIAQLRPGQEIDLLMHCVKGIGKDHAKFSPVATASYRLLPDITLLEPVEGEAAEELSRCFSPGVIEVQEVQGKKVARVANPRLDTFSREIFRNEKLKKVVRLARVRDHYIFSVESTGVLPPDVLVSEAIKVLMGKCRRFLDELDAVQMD
UniProt O15318: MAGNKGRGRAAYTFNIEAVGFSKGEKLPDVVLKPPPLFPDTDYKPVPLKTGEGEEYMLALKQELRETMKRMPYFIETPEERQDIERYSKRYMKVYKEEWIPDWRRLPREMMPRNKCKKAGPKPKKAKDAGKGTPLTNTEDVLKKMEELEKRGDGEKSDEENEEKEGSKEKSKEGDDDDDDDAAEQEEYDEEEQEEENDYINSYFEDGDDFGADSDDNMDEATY
UniProt P23284: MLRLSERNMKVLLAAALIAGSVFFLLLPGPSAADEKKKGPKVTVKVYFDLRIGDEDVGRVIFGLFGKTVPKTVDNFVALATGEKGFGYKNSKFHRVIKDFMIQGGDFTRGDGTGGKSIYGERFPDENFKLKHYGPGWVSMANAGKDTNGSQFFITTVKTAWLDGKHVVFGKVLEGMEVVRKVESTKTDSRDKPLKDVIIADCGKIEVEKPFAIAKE
UniProt Q8TF01: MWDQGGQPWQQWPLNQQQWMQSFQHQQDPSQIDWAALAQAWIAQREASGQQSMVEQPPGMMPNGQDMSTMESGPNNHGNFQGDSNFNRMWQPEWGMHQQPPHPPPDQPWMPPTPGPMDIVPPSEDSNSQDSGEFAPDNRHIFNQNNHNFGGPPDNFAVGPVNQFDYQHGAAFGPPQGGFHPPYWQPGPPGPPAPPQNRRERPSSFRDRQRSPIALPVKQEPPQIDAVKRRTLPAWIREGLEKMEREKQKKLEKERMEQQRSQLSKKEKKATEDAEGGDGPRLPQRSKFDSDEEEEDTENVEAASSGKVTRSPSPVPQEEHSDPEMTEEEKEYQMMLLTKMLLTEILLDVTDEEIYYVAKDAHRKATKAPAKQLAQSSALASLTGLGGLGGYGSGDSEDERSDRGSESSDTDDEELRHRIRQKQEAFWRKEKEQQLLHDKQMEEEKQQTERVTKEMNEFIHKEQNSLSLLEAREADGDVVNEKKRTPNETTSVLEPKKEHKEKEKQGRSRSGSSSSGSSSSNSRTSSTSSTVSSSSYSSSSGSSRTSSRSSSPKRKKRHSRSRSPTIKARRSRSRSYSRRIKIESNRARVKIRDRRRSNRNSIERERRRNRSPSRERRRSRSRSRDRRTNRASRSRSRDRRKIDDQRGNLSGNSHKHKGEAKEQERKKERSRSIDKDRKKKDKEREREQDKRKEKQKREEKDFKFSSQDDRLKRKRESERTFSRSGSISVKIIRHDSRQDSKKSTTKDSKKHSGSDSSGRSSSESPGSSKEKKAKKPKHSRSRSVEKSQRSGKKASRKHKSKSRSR
UniProt P00491: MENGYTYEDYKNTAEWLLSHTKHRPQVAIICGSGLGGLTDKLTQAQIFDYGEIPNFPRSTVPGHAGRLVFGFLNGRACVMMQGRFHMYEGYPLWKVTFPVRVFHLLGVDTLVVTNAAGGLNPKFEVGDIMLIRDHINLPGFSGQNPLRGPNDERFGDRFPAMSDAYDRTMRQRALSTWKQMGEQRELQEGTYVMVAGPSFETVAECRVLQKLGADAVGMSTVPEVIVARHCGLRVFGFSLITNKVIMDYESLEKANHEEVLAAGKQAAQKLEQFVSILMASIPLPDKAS

How the values were obtained:
Assay in all cases: log2 fold change, soluble protein after heating vs DMSO (PISA); higher = thermal stabilisation; K562 cells, 10 uM, 30 min; active = over 0.2 and 3.5 SD of the protein, either way, in both replicates (recomputed)
[1] = compound: CN1CCN(CCOc2cc(OC3CCOCC3)c3c(Nc4c(Cl)ccc5c4OCO5)ncnc3c2)CC1 [saracatinib]
Procedure, shortened: (§1)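 For each measurement, 10 μM compound was applied for 30 min to K562 cells at 2×10^6 cells/mL. Aliquots were heated for 3 min across 48°C-58°C, pooled, and extracted in PBS with 0.5% NP-40 at 4°C; the supernatant after 21,000xg for 90 min was soluble protein. This was quantified by TMTpro 16plex LC-MS/MS with channel sums equalised, and thermal stability was reported relative to control samples from duplicates, on a log2 fold-change scale.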

[2] = compound: CN1CCN(c2nc(C3=C(c4c[nH]c5ccccc45)C(=O)NC3=O)c3ccccc3n2)CC1 [sotrastaurin]
Procedure, shortened: as §1

[3] = compound: CN1CC[C@H](c2c(O)cc(O)c3c(=O)cc(-c4ccccc4Cl)oc23)[C@H](O)C1 [alvocidib]
Procedure, shortened: as §1

[4] = compound: CN1CCc2c(c3ccccc3n2Cc2ccc(C(=O)NO)cc2)C1 [Tubastatin A]
Procedure, shortened: as §1

[5] = compound: CNC(=O)C1=CC=CC=C1NC2=NC(=NC=C2Cl)NC3=C(C=C(C=C3)N4CCOCC4)OC
Procedure, shortened: as §1

[6] = compound: CNC(=O)c1ccc(Nc2ncc(C(F)(F)F)c(NCc3nccnc3N(C)S(C)(=O)=O)n2)cc1 [defactinib]
Procedure, shortened: as §1

[7] = compound: CNCc1ccc(-c2[nH]c3cc(F)cc4c3c2CCNC4=O)cc1 [rucaparib]
Procedure, shortened: as §1

[8] = compound: CNc1nc(-c2ccc3c(N)n[nH]c3c2)cc(N2C[C@@H](C(=O)NC3CCCCC3)CC[C@H]2C)n1
Procedure, shortened: as §1

[9] = compound: COC(=O)N[C@@H](C)CNc1nccc(-c2cn(C(C)C)nc2-c2cc(Cl)cc(NS(C)(=O)=O)c2F)n1 [encorafenib]
Procedure, shortened: as §1

[10] = compound: COC(=O)[C@H](CCSC)NC(=O)C1=C(C=C(C=C1)NC[C@H](CS)N)C2=CC=CC=C2
Procedure, shortened: as §1

[11] = compound: COC1=CC=C(C=C1)CN2C=CC3=C2C=C(C=C3)C(=O)NO
Procedure, shortened: as §1

[12] = compound: CON(C)C(=O)N1N=C(c2cc(F)ccc2F)S[C@@]1(CCCN)c1ccccc1 [filanesib]
Procedure, shortened: as §1

[13] = compound: CO[C@H]1C[C@@H]2CC[C@@H](C)[C@@](O)(O2)C(=O)C(=O)N2CCCC[C@H]2C(=O)O[C@H]([C@H](C)C[C@@H]2CC[C@H](n3cnnn3)[C@H](OC)C2)CC(=O)[C@H](C)/C=C(\C)[C@@H](O)[C@@H](OC)C(=O)[C@H](C)C[C@H](C)/C=C/C=C/C=C/1C [zotarolimus]
Procedure, shortened: as §1

[14] = compound: COc1cc(C(=O)O)ccc1NC(=O)[C@@H]1N[C@@H](CC(C)(C)C)[C@](C#N)(c2ccc(Cl)cc2F)[C@H]1c1cccc(Cl)c1F [idasanutlin]
Procedure, shortened: as §1

[15] = compound: COc1cc(Nc2ncc3c(n2)-c2ccc(Cl)cc2C(c2c(F)cccc2OC)=NC3)ccc1C(=O)O [alisertib]
Procedure, shortened: as §1

[16] = compound: COc1cc2nc(-c3cc(F)ccc3O)nc(N[C@@H]3CNC[C@H]3C(C)(C)O)c2cc1OC
Procedure, shortened: as §1

[17] = compound: COc1cc2ncnc(Nc3ccc(F)c(Cl)c3)c2cc1OCCCN1CCOCC1 [gefitinib]
Procedure, shortened: as §1

[18] = compound: COc1cccc2cc(-c3nc([C@H]4CC[C@H](C(=O)O)CC4)n4ncnc(N)c34)[nH]c12
Procedure, shortened: as §1

[19] = compound: CS(=O)(=O)CCNCc1ccc(-c2ccc3ncnc(Nc4ccc(OCc5cccc(F)c5)c(Cl)c4)c3c2)o1 [lapatinib]
Procedure, shortened: as §1

[20] = compound: CS(=O)(=O)N1CCN(Cc2cc3nc(-c4cccc5[nH]ncc45)nc(N4CCOCC4)c3s2)CC1 [pictilisib]
Procedure, shortened: as §1

Measured: log2 fold change

PLPBP (UniProt O94903)
inactive: [1] -0.088 | [2] -0.046 | [3] -0.134 | [4] 0.117 | [5] 0.225 | [6] -0.142 | [7] 0.133 | [8] -0.056 | [9] 0.003 | [10] -0.028 | [11] 0.018 | [12] -0.014 | [13] 0.078 | [14] 0.055 | [15] 0.033 | [16] -0.021 | [17] 0.048 | [18] -0.139 | [19] -0.03 | [20] 0.245

PLEKHF2 (UniProt Q9H8W4)
inactive: [1] 0.024 | [2] -0.112 | [3] -0.117 | [4] 0.013 | [5] -0.011 | [6] 0.018 | [7] 0.058 | [8] 0.003 | [9] 0.12 | [10] 0 | [11] 0.007 | [12] -0.044 | [13] 0.027 | [14] 0.001 | [15] -0.015 | [16] 0.013 | [17] 0 | [18] 0.095 | [19] -0.036 | [20] -0.028

PLRG1 (UniProt O43660)
inactive: [1] 0.032 | [2] -0.028 | [3] 0.102 | [4] -0.02 | [5] -0.067 | [6] 0.016 | [7] 0.022 | [8] -0.121 | [9] -0.018 | [10] 0.014 | [11] -0.024 | [12] 0.042 | [13] -0.031 | [14] 0.037 | [15] -0.032 | [16] -0.026 | [17] -0.004 | [18] 0.031 | [19] -0.016 | [20] -0.114

PPM1A isoform 3 (UniProt P35813)
inactive: [1] -0.036 | [2] 0.047 | [3] -0.05 | [4] 0.039 | [5] 0.008 | [6] -0.017 | [7] -0.062 | [8] 0.04 | [9] -0.004 | [10] -0.019 | [11] 0 | [12] -0.061 | [13] -0.037 | [14] 0 | [15] 0.017 | [16] 0.058 | [17] 0.016 | [18] -0.002 | [19] -0.029 | [20] 0.112

PNPT1 (UniProt Q8TCS8)
inactive: [1] -0.049 | [2] -0.035 | [3] -0.123 | [4] 0.024 | [5] 0.012 | [6] -0.072 | [7] 0.044 | [8] 0.054 | [9] 0.04 | [10] -0.033 | [11] 0.033 | [12] -0.036 | [13] 0.013 | [14] -0.082 | [15] 0.018 | [16] 0.074 | [17] 0.068 | [18] 0.041 | [19] -0.017 | [20] -0.002

POLR3A (UniProt O14802)
inactive: [1] -0.067 | [2] -0.212 | [3] -0.073 | [4] 0.071 | [5] 0.017 | [6] -0.024 | [7] 0.089 | [8] -0.02 | [9] 0.076 | [10] -0.059 | [11] 0.036 | [12] -0.083 | [13] 0.115 | [14] -0.03 | [15] -0.047 | [16] -0.037 | [17] 0.022 | [18] 0.046 | [19] 0.101 | [20] 0.074

Two records drawn at random from the list so far, as already listed:
PLRG1 (UniProt O43660)
inactive: [1] 0.032 | [2] -0.028 | [3] 0.102 | [4] -0.02 | [5] -0.067 | [6] 0.016 | [7] 0.022 | [8] -0.121 | [9] -0.018 | [10] 0.014 | [11] -0.024 | [12] 0.042 | [13] -0.031 | [14] 0.037 | [15] -0.032 | [16] -0.026 | [17] -0.004 | [18] 0.031 | [19] -0.016 | [20] -0.114

PLEKHF2 (UniProt Q9H8W4)
inactive: [1] 0.024 | [2] -0.112 | [3] -0.117 | [4] 0.013 | [5] -0.011 | [6] 0.018 | [7] 0.058 | [8] 0.003 | [9] 0.12 | [10] 0 | [11] 0.007 | [12] -0.044 | [13] 0.027 | [14] 0.001 | [15] -0.015 | [16] 0.013 | [17] 0 | [18] 0.095 | [19] -0.036 | [20] -0.028

Continued.

PON2 (UniProt Q15165)
inactive: [1] -0.105 | [2] -0.005 | [3] 0.052 | [4] 0.026 | [5] -0.009 | [6] -0.013 | [7] -0.051 | [8] 0.032 | [9] -0.031 | [10] 0.013 | [11] -0.012 | [12] -0.046 | [13] 0.033 | [14] 0.019 | [15] 0.018 | [16] 0.011 | [17] 0.034 | [18] 0.041 | [19] -0.027 | [20] -0.152

POP4 (UniProt O95707)
inactive: [1] -0.021 | [2] -0.05 | [3] -0.002 | [4] 0.01 | [5] -0.01 | [6] 0.039 | [7] 0.169 | [8] 0.026 | [9] 0.079 | [10] -0.005 | [11] -0.058 | [12] -0.005 | [13] 0.083 | [14] -0.048 | [15] -0.057 | [16] 0.124 | [17] -0.017 | [18] 0 | [19] -0.055 | [20] 0.038

PODXL2 (UniProt Q9NZ53)
inactive: [1] -0.26 | [2] -0.333 | [3] 0.154 | [4] 0.043 | [5] 0.033 | [6] -0.142 | [7] 0.008 | [8] 0 | [9] -0.07 | [10] -0.103 | [11] 0.052 | [12] -0.121 | [13] 0.13 | [14] -0.091 | [15] -0.084 | [16] 0.052 | [17] -0.145 | [18] 0.059 | [19] 0.008 | [20] 0.057

POLR3E (UniProt Q9NVU0)
inactive: [1] -0.112 | [2] -0.217 | [3] -0.029 | [4] -0.023 | [5] 0.052 | [6] -0.057 | [7] 0.198 | [8] 0.027 | [9] 0.096 | [10] -0.104 | [11] 0.01 | [12] 0.053 | [13] 0.065 | [14] 0.003 | [15] 0.013 | [16] 0.064 | [17] 0.114 | [18] -0.051 | [19] -0.059 | [20] -0.039

POLR1C (UniProt O15160)
inactive: [1] -0.104 | [2] -0.115 | [3] -0.118 | [4] 0.054 | [5] 0.025 | [6] -0.08 | [7] 0.172 | [8] 0.072 | [9] 0.123 | [10] 0.049 | [11] -0.137 | [12] 0.067 | [13] 0.075 | [14] 0.01 | [15] -0.041 | [16] 0.011 | [17] 0.053 | [18] -0.139 | [19] 0.055 | [20] 0.045

POLR3G (UniProt O15318)
inactive: [1] -0.041 | [2] -0.012 | [3] -0.026 | [4] -0.07 | [5] -0.018 | [6] -0.062 | [7] -0.033 | [8] -0.052 | [9] 0.028 | [10] -0.029 | [11] -0.074 | [12] 0.01 | [13] -0.033 | [14] 0.11 | [15] -0.06 | [16] -0.1 | [17] -0.04 | [18] 0.027 | [19] 0.065 | [20] -0.014

PPIB (UniProt P23284)
inactive: [1] -0.063 | [2] -0.01 | [3] 0.049 | [4] 0 | [5] -0.008 | [6] 0.054 | [7] 0.007 | [8] 0.002 | [9] 0.05 | [10] -0.001 | [11] -0.08 | [12] 0.065 | [13] 0.012 | [14] 0.046 | [15] -0.115 | [16] -0.006 | [17] -0.003 | [18] -0.044 | [19] 0.011 | [20] -0.022

POLR1D (UniProt P0DPB6)
inactive: [1] -0.089 | [2] -0.221 | [3] 0.19 | [4] 0.091 | [5] 0.011 | [6] 0.02 | [7] 0.257 | [8] -0.052 | [9] -0.03 | [10] -0.045 | [11] -0.049 | [12] 0.024 | [13] 0.007 | [14] 0.056 | [15] -0.102 | [16] -0.072 | [17] 0.03 | [18] -0.113 | [19] 0.103

PNISR (UniProt Q8TF01)
inactive: [1] 0.041 | [2] 0.077 | [3] 0.037 | [4] -0.027 | [5] -0.088 | [6] -0.028 | [7] 0.001 | [8] -0.048 | [9] -0.018 | [10] 0.048 | [11] -0.033 | [12] -0.017 | [13] -0.046 | [14] 0.014 | [15] -0.032 | [16] -0.019 | [17] 0.019 | [18] 0.029 | [19] 0.052 | [20] 0.038

PNP (UniProt P00491)
inactive: [1] 0.054 | [2] 0.035 | [3] 0.001 | [4] -0.009 | [5] -0.034 | [6] 0 | [7] -0.032 | [8] -0.028 | [9] -0.023 | [10] 0.016 | [11] -0.033 | [12] -0.016 | [13] -0.018 | [14] -0.026 | [15] -0.046 | [16] 0.005 | [17] 0 | [18] 0.068 | [19] -0.003 | [20] 0.021
